Measured values as given in patent publication US20250257130A1 (NONA BIOSCIENCES SUZHOU, published 2025).
No constants are given. Whether binding was seen depends on the method and setting. Some binding calls cover weakened binding; strength is not graded here. One block for each binder: values may come before it.

By UniProt entry, the sequences of proteins in these tests, tags left out. Residues count along the entry.
UniProt Q01973, residues 30-937: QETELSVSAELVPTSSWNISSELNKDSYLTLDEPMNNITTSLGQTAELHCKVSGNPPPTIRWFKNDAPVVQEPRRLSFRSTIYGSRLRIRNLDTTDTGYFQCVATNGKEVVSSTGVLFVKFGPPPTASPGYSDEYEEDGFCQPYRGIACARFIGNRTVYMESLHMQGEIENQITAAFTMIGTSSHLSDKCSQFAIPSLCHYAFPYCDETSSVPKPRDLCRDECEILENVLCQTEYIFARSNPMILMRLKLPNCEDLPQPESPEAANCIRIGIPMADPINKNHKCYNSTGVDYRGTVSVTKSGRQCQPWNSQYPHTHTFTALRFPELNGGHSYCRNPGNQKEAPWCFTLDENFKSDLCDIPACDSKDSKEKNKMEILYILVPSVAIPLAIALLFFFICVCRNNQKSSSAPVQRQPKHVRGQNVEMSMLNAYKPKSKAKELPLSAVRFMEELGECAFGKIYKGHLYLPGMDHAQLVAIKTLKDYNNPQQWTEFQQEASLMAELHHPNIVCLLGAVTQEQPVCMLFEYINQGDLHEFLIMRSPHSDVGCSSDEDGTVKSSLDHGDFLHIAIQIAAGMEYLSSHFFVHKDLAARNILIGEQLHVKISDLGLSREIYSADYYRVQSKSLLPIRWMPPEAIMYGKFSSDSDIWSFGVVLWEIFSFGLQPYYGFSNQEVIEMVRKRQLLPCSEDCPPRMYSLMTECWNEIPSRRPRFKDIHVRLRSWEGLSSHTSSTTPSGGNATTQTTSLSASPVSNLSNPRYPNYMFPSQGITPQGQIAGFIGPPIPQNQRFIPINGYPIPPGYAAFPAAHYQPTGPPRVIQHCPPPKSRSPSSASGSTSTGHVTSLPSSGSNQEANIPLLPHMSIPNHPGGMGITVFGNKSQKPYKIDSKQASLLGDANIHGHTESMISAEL

What was measured:
[1] = target: human ROR1 on cells (HEK293T-hROR1, PANC-1, A549) (human) (UniProt Q01973); assay: flow cytometry on PANC-1 cells, MFI (FITC-A Median)
[2] = target: cynomolgus ROR1 on CHO-K1-cynoROR1 cells (cynomolgus monkey); assay: flow cytometry, CHO-K1-cynoROR1 cells
[3] = target: cynomolgus ROR1 on CHO-K1-cynoROR1 cells (cynomolgus monkey); assay: flow cytometry on CHOK1-cynoROR1 cells, MFI (APC-A Median) [middle panel, letter not given]
[4] = target: human ROR1 on cells (HEK293T-hROR1, PANC-1, A549) (human) (UniProt Q01973); assay: flow cytometry, PANC-1 cells
[5] = target: human ROR1 on cells (HEK293T-hROR1, PANC-1, A549) (human) (UniProt Q01973); assay: flow cytometry on PANC-1 cells, MFI (Median-APC) [bottom panel, letter not given]
[6] = target: human ROR1 on cells (HEK293T-hROR1, PANC-1, A549) (human) (UniProt Q01973); assay: flow cytometry on PANC-1 cells, MFI (Median-APC) [middle panel, letter not given]
[7] = target: cynomolgus ROR1 on CHO-K1-cynoROR1 cells (cynomolgus monkey); assay: flow cytometry on CHOK1-cynoROR1 cells, MFI (APC-A Median) [top panel]
[8] = target: human ROR1 on cells (HEK293T-hROR1, PANC-1, A549) (human) (UniProt Q01973); assay: flow cytometry on PANC-1 cells, MFI (APC-A Median)

- binding [1]: binds
- binding [2]: binds
- binding [3]: binds
- binding [4]: binds
B1: PR005344 (antibody, human IgG1, V domains shown)
VH: EVQLVESGGGLVKPGGSLRLSCAASGFTFSDYYMSWIRQAPGKGLEWISYISNSSSSISYANSVKGRFTVSRDNAKNSLYLQMNSLRAEDTALYYCARSPRGAFYEDFDYWGQGTLVTVSS
notes: HCAb (heavy chain-only, human IgG1 Fc), no light chain

- binding [2]: binds
B2: PR303199 (antibody, human IgG1, V domains shown)
VH: EVQLVESGGGLVKPGGSLRLSCAASGFTFSDYYMSWIRQAPGKGLEWIAYISSSGSTIYYADSVKGRFTISRDNAKNSLYLQMNSLRAEDTAIYYCAREYYGSENYDHFDYWGQGTLVTVSS
notes: as for B1

- binding [1]: binds
- binding [2]: binds
- binding [3]: binds
- binding [4]: binds
B3: PR005345 (antibody, human IgG1, V domains shown)
VH: EVQLVESGGGLVKPGGSLRLSCAASGFTFSDYYMSWIRQAPGKGLEWIAYISSSGSTIHYSDSVKGRFTISRDNAKNSLYLQMNSLRAEDTAVYYCARDTPSSSSDWVSLQFDYWGQGTPVTVSS
notes: as for B1

- binding [5]: binds
B4: PR007422 (antibody, V domains shown)
VH: EVQLVESGGGLVKPGGSLRLSCAASGFTFSDFYMSWIRQAPGKGLEWISYIDSSGRPLAYADSVKGRFTISRDNAKNSLYLQMNSLRAEDTAIYYCARDIPSSSSDWVSLQFDYWGQGTLVTVSS
notes: bivalent form (HCAb) variant of PR005340, no light chain

- binding [6]: binds
B5: PR007416 (antibody, V domains shown)
VH: EVQLVESGGGLVKPGGSLRLSCAASGFTFSDFYMSWIRQAPGKGLEWISYINTRGSPIGYADSVKGRFTISRDNAKNSLYLQMNSLRAEDTAIYYCARDIPSSSSDWVDLQFDYWGQGTLVTVSS
notes: as for B4

- binding [6]: binds
B6: PR007413 (antibody, V domains shown)
VH: EVQLVESGGGLVKPGGSLRLSCAASGFTFSDFYMSWIRQAPGKGLEWISYINTRGSPIGYADSVKGRFTISRDNAKNSLYLQMNSLRAEDTAIYYCARDMPSSSSDWVDLQFDYWGQGTLVTVSS
notes: as for B4

- binding [5]: binds
B7: PR007421 (antibody, V domains shown)
VH: EVQLVESGGGLVKPGGSLRLSCAASGFTFSDFYMSWIRQAPGKGLEWISYIDSSGRPLAYADSVKGRFTISRDNAKNSLYLQMNSLRAEDTAIYYCARDMPSSSSDWVSLQFDYWGQGTLVTVSS
notes: as for B4

- binding [6]: binds
B8: PR007415 (antibody, V domains shown)
VH: EVQLVESGGGLVKPGGSLRLSCAASGFTFSDFYMSWIRQAPGKGLEWISYIDSSGRPLAYADSVKGRFTISRDNAKNSLYLQMNSLRAEDTAIYYCARDMPSSSSDWVDLQFDYWGQGTLVTVSS
notes: as for B4

- binding [1]: binds
- binding [2]: binds
- binding [3]: binds
- binding [4]: binds
B9: PR005348 (antibody, human IgG1, V domains shown)
VH: EVQLVESGGGLVKPGGSLRLSCAASGFTFSDYYMSWIRQTPGKGLEWVSYISRSGSTKYYADSVKGRFTISRDNAKNSLYLQMNSLRAEDTAVYYCARDAPSSNSDWVSLHFDHWGQGTLVTVSS
notes: as for B1

- binding [6]: binds
B10: PR007414 (antibody, V domains shown)
VH: EVQLVESGGGLVKPGGSLRLSCAASGFTFSDFYMSWIRQAPGKGLEWISYISSSGSTRYYADSVKGRFTISRDNAKNSLYLQMNSLRAEDTAIYYCARDMPSSSSDWVDLQFDYWGQGTLVTVSS
notes: as for B4

- binding [5]: binds
B11: PR007419 (antibody, V domains shown)
VH: EVQLVESGGGLVKPGGSLRLSCAASGFTFSDFYMSWIRQAPGKGLEWISYINTRGSPIGYADSVKGRFTISRDNAKNSLYLQMNSLRAEDTAIYYCARDMPSSSSDWVSLQFDYWGQGTLVTVSS
notes: as for B4

- binding [5]: binds
B12: PR007423 (antibody, V domains shown)
VH: EVQLVESGGGLVKPGGSLRLSCAASGFTFSDYYMSWIRQAPGKGLEWISYIDSSGRPLAYADSVKGRFTISRDNAKNSLYLQMNSLRAEDTAIYYCARDIPSSSSDWVDLQFDYWGQGTLVTVSS
notes: as for B4

- binding [6]: binds
B13: PR007418 (antibody, V domains shown)
VH: EVQLVESGGGLVKPGGSLRLSCAASGFTFSDFYMSWIRQAPGKGLEWISYIDSSGRPLAYADSVKGRFTISRDNAKNSLYLQMNSLRAEDTAIYYCARDIPSSSSDWVDLQFDYWGQGTLVTVSS
notes: as for B4

- binding [5]: binds
B14: PR007420 (antibody, V domains shown)
VH: EVQLVESGGGLVKPGGSLRLSCAASGFTFSDFYMSWIRQAPGKGLEWISYISSSGSTRYYADSVKGRFTISRDNAKNSLYLQMNSLRAEDTAIYYCARDMPSSSSDWVSLQFDYWGQGTLVTVSS
notes: as for B4

- binding [2]: binds
B15: PR303189 (antibody, human IgG1, V domains shown)
VH: EVQLVESGGGLVKPGGSLRLSCAASGFNLSDSYMSWIRQAPGKGLEWVSCISSSGSTIYYADSVKGRFTVSRDNAKNSLYLQMNHLRAEDTALYYCARDCVIGIRDDSDIWGQGTMVTVSS
notes: as for B1

- binding [2]: binds
- binding [7]: binds
- binding [8]: binds
- binding [4]: binds
B16: PR005341 (antibody, human IgG1, V domains shown)
VH: EVQLVESGGGLVKPGGSLRLSCVASGFTFSDYYMSWIRQAPGKGLEWISYISSSGSSIYYAESVKGRFTISRDNAKNSLYLQMNRLRAEDTALYYCARTPPSSDNWYEDFDYWGQGALVTVSS
notes: as for B1

- binding [2]: binds
- binding [7]: binds
- binding [8]: binds
- binding [4]: binds
B17: PR005343 (antibody, human IgG1, V domains shown)
VH: EVQLVESGGGLVKPGGSLRLSCVASGFTFSDYYMSWIRQAPGKGMEWISYISSSGSTKNYANSVKGRFTISRDNAKNSLYLQMNSLRAEDTAAYYCARVPPYNASWYEDFDYWGQGTLVTVSS
notes: as for B1

- binding [2]: binds
- binding [7]: binds
- binding [8]: binds
- binding [4]: binds
B18: PR005347 (antibody, human IgG1, V domains shown)
VH: EVQLVESGGGLVKPGGSLRLSCVTSGFTFSDYYMSWIRQAPGKGMEWISYISTTGSTKNYANSVKGRFTISRDNAKSSLYLQMNSLRAEDTAAYYCARVPPSNASWYEDFDYWGQGTLVTVSS
notes: as for B1

- binding [2]: binds
- binding [7]: binds
- binding [8]: binds
- binding [4]: binds
B19: PR005337 (antibody, human IgG1, V domains shown)
VH: EVQLVESGGGLVKPGGSLRLSCAASGFIFSDYYMSWIRQAPGKGLEWVSYISSSGSTIHYADSVKGRFTVSRDNAKNSLYLQMNSLRTEDTAVYYCARDPPTSNSDWVSLHFDHWGQGTLVTVSS
notes: as for B1

- binding [5]: binds
B20: PR007424 (antibody, V domains shown)
VH: EVQLVESGGGLVKPGGSLRLSCAASGFTFSDYYMSWIRQAPGKGLEWISYIDSSGRPLAYADSVKGRFTISRDNAKNSLYLQMNSLRAEDTAIYYCARDMPSSSSDWVSLQFDYWGQGTLVTVSS
notes: as for B4

- binding [1]: binds
- binding [2]: binds
- binding [3]: binds
- binding [4]: binds
B21: PR005338 (antibody, human IgG1, V domains shown)
VH: EVQLVESGGGLVKPGGSLRLSCAASGFTFSDYYMSWIRQAPGKGLEWISYISSSGTTIHYADSVKGRFTISRDNAKNSLYLQMNSLRTEDTAVYYCARDAPSSNSDWVSLQFDYWGQGTLVTVSS
notes: as for B1

- binding [6]: binds
B22: PR007417 (antibody, V domains shown)
VH: EVQLVESGGGLVKPGGSLRLSCAASGFTFSDFYMSWIRQAPGKGLEWISYISSSGSTRYYADSVKGRFTISRDNAKNSLYLQMNSLRAEDTAIYYCARDIPSSSSDWVDLQFDYWGQGTLVTVSS
notes: as for B4

- binding [2]: binds
- binding [7]: binds
- binding [8]: binds
- binding [4]: binds
B23: PR005339 (antibody, human IgG1, V domains shown)
VH: EVQLVESGGGLVKPGGSLKLSCAASGFTFSDYYMSWIRQAPGKGVEWISYISNNGSTIHYADSVKGRFTISRDNAKNSLYLQMNSLRAEDTAVYYCARDFNNGWYEDFDYWGQGTLVTVSS
notes: as for B1

- binding [2]: binds
- binding [7]: binds
- binding [8]: binds
- binding [4]: binds
B24: PR005342 (antibody, human IgG1, V domains shown)
VH: EVQLVESGGGLVKPGGSLRLSCAASGFNFSDYYMSWIRQAPGKGLEWISYISNSSSTIYYADSVKGRFTISRDNAKNSLYLQMSRLRAEDTAMYYCARDTTNGWYEDFDYWGQGTLVTVSS
notes: as for B1

- binding [2]: binds
B25: PR303155 (antibody, human IgG1, V domains shown)
VH: EVQLVESGGGLVKPGGSLRLSCAASGFTLSDYYMSWIRQAPGKGLEWISYISSNGSTIYYADSVKGRFTISRDNARNSLYLQMNSLRAEDTALYYCARDVSSGWYEDFDYWGQGTLVTVSS
notes: as for B1

- binding [2]: binds
B26: PR303145 (antibody, human IgG1, V domains shown)
VH: QVQLVESGGGLVKPGGSLRISCAASGFTFSNYNMSWIRQAPGKGVEWVSHISGSGRTIYYAESVKGRFTISRDNAKNSLYLQMNSLRAEDTAMYYCARDLSSGWYEDFDYWGQGTLVTVSS
notes: as for B1
